Results taken from paper doi:10.1101/2023.07.16.549182.
These are yes or no findings as the source states them, for the method shown. In cells and extracts the contact can be indirect. Some binding calls cover weakened binding; strength is not graded here.

Sequences of proteins named here, by UniProt entry; tags and fusion partners are left off.
UniProt Q06210: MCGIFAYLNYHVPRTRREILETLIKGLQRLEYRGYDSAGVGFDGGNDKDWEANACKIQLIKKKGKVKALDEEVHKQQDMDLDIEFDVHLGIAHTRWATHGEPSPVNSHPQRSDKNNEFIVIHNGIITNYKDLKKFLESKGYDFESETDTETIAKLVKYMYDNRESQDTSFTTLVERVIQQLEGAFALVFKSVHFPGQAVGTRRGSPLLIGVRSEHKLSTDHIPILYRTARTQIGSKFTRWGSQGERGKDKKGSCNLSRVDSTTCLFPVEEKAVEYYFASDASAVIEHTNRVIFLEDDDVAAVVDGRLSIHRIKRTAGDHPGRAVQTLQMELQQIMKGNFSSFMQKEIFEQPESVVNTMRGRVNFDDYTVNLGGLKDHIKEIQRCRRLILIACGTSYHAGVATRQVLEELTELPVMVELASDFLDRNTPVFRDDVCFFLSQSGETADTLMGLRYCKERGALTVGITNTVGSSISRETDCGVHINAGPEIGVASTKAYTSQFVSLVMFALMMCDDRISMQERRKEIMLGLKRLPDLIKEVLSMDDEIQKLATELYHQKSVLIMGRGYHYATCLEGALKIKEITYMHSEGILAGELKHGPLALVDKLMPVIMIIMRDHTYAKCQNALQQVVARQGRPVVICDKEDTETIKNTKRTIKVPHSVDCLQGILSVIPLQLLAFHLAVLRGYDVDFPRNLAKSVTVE

Target: T1, TAK1 binding protein 1 (UniProt Q15750)
T1 sequence: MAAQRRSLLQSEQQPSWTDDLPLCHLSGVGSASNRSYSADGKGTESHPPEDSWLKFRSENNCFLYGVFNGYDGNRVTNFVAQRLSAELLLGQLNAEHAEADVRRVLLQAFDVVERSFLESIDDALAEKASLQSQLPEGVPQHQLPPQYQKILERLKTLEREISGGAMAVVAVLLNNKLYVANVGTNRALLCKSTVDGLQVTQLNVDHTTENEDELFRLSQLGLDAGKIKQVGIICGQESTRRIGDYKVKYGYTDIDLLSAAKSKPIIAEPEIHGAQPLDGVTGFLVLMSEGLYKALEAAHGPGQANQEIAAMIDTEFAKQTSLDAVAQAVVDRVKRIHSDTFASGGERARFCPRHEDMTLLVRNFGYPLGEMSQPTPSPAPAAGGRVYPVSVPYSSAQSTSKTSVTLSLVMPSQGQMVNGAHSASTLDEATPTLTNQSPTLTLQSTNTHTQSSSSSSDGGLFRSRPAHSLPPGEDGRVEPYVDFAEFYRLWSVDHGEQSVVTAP
Experiment: co-IP

In the case of “glutamine-fructose-6-phosphate aminotransferase 1 (from UniProt Q06210 1-699) (enzyme)”, the binding is reported as “binds”.
